Here are results for 1 sequence from PMC4600981.

The target of the series is T1, FvCamlp (Flammulina velutipes ATCC13547) (UniProt R4HKU2).
T1 sequence (looked up): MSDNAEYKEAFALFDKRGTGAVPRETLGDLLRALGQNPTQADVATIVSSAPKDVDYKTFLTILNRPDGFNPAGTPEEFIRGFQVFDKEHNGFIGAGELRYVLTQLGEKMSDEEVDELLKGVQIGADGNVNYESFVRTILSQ
Put plainly: EMSA. The conditions noted are these: 5 mM EGTA, 1.0 ug protein; EMSA 5X binding buffer: 20% glycerol, 5 mM MgCl2, 2.5 mM EDTA, 2.5 mM DTT, 250 mM NaCl, 50 mM Tris-HCl pH 7.5, 0.25 mg/ml poly dA-dT; room temperature 30 min; recombinant protein; residues 1-141; protein details: GST (pGEX-4T2) removed by thrombin; label: 32P 5' end label; probe letters rebuilt from the primers and the genome. On the technique in general: Mobility shift assays separate free from complexed probe on a gel.

For at least one entry, the source does not settle the construct or the ends of the probe. A weaker result is weaker than the reference pair of the same experiment. Tags and fusion partners may be left off the protein sequences shown.

For the sequence “GAATTCGACACCGCGGGGTCGCCGAGGTAACATAACGTGAAGCATTGAATACGTTGCTAATTTTAGTGCTTCCCAGAACGTGCCCAGCACTTTGAGGCGCTTCCAAACTAGT (double strand) [100 bp OXDC promoter]”, the binding result is on record as “binds more weakly”.
